Results are given in words; binding and its absence hold for the method and conditions named. Binding seen in cells or lysates may run through a third protein. Here binding means that the protein was enriched with, or labelled near, the bait; the list need not be complete. Tags and fused reporters may be left off the sequences shown.

Experimental findings from publication PMC3121800 are described below.

The assay addresses T1, 3xFLAG-CERT (human (by the printed RefSeq NM_031361.2; the paper says only 'mammalian genes')) (UniProt Q9Y5P4).
T1 sequence: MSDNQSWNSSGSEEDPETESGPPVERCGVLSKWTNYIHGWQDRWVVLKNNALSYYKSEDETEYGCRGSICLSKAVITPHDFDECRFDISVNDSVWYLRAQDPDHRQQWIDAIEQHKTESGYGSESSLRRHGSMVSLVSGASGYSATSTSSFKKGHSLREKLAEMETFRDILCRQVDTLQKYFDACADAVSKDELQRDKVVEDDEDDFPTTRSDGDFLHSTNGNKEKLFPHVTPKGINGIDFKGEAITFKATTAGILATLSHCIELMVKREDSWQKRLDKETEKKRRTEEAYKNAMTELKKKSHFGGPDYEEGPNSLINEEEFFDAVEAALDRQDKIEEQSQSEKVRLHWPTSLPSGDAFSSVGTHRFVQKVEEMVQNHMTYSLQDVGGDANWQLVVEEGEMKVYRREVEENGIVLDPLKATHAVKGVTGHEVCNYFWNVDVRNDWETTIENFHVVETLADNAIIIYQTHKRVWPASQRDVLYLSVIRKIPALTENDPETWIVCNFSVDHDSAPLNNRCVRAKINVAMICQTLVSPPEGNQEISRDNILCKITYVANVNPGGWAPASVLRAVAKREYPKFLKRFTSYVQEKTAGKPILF
Kind of assay: affinity purification with mass spectrometry; lysates of HEK293 transfected with 3xFLAG-CERT (18 h) and infected with C. trachomatis (24 h); anti-FLAG M2 agarose beads; SDS-PAGE, silver stain; a ~15 kDa band present only in transfected/infected samples analysed by LC MS-MS.

B1: C. trachomatis inclusion membrane protein IncD (from infecting bacteria) (protein, UniProt B0B9M3 1-146)
chain: MTKVYAHSIQQERVVDRIALLERCLDLSNSLPTAKRLAAVAVATILAIALLVVAGLLFSGVLCSPVSVVAASLFFGVGAFLLGGALVGGVLTTEAVTRERLHRSQTLMWNNLCCKTAEVEQKISTASANAKSNDKLENSVSKKGAS
On to B1, for which the binding result is reported as “binds”.
